Results as given in PMC10163288.
This is one part of the list.

B1: il2ra_site1_2b5i_normal_mot_22370d59370c406a0c205a431f537cfa_0001_af2_000000027_0001_1_31_H_._HHH_b2_03062_0001_0000200012_0000001_0 (protein)
chain: SSSSDNELVRAATRIVWKLRRELNLSREEAQLLHRVAAELVDEGVSPEELEEILREYAEEISSSS
B2: il2ra_site2_3nfp_sap_21_mot_HHH_b1_04032_000000208_0001_43_56_H_._HHH_b2_05536_af2_0001_0000100001_0000001_0_0001_af2pred_0001_af2pred (protein)
chain: SSSSSSEEVEELLEQAKELYKRGDEEEVEEVLLKAASLAAELNDFELFAEVSALFEKLLSSSSSS
B3: il2ra_site2_2erj_sap_36_mot_HHH_b1_08325_af2_000000089_0001_23_40_H_._HHH_b2_06241_af2_0001_0000700012_0000001_0_0001 (protein)
chain: SSSSSEEEEEVIRLIAEAIELAHEGDEEEARELLEEALRIAREINNETLREYIERALKHLKSSSS
B4: il2ra_site2_3nfp_sap_24_mot_ems_3hM_287_af2_000000177_0001_46_64_H_._HHH_b1_01176_af2_0001_0000700010_0000001_0_0001 (protein)
chain: SSSSDEAEEYIRAALALLERAIELGDEEAFEEHFELVEKAIKDNNNEELEEILKELQKKFESSSS
B5: il2ra_site2_2erj_sap_16_mot_HHH_b1_00941_000000060_0001_45_58_H_._HHH_b2_03642_0001_0000700020_0000001_0_0001 (protein)
chain: SSSSDEELRELFELANELMHAYARNNPELVEEIAREARELAERLNSPNAEEVIEWILEELSSSSS
B6: il2ra_site1_1z92_normal_mot_HHH_b1_00499_000000281_0001_1_17_H_._HHH_b1_01522_af2_0001_0000200033_0000001_0 (protein)
chain: SSSSSKEQAAELIVRILVEIAGLSEEQEEALEELLKELLERGVDFLEIIKRLDELARRLESSSSS
B7: il2ra_site2_3nfp_normal_mot_HHH_b2_05281_000000198_0001_39_56_H_._HHH_b2_02030_0001_0000300023_0000001_0 (protein)
chain: SSSSSDREEVEELLERAEQSDDPEEIRRLLAEATEIAYETRNSELFYLIAEVAFRLEQGSSSSSS
B8: il2ra_site1_1z92_normal_mot_HHH_b2_06133_af2_000000132_0001_1_18_H_._HHH_b2_03205_0001_0000100004_0000001_0 (protein)
chain: SSSSSDEEIRERVEELLEELREIEDPREWSKVLREALRLAAELRDPELRRLIHEVVRELASSSSS
B9: il2ra_site1_2b5i_normal_mot_f5ff40796168375b462bec8614a1db4a_0001_1_000000138_0001_53_65_H_._HHH_b1_01646_0001_0000100001_0000001_0 (protein)
chain: SSSSDEVTEDLLRAFLEEAEELLENGNPKEARSILHLARATARRRGNELLEEVERLLKEVRSSSS
B10: il2ra_site2_3nfp_sap_18_mot_HHH_b2_05281_000000198_0001_39_56_H_._4949e777cf0084a35dc4178a1d33e300_0001_0001_0000100013_0000001_0_0001 (protein)
chain: SSSSDAEEYVKAALALLKEAAERKDEEAFEKMFRLIELAIEDNNDEEAQRLLEELERLFNSSSSS
B11: il2ra_site2_2erj_sap_19_mot_d8db7d3d6fba55db16f38f4fb78be25a_0001_af2_000000045_0001_18_32_H_._HHH_b2_07174_af2_0001_0000100002_0000001_0_0001_af2pred_0001_1_af … (protein)
chain: SSSSDEEVREEVERLLEEAKKIEDPHKAASVVSEAAELAIKNDDEELLREISKISFELVGSSSSS
B12: il2ra_site2_2erj_normal_mot_6d5f7cbc25fed124e3eb7f952334b9cf_0001_af2_000000048_0001_1_13_H_._HHH_b1_02400_af2_0001_0000200016_0000001_0 (protein)
chain: SSSSDEKARELRKLFEELLELFKQGNLEEAEEILEEAIRRARELGDEEAVLQLELLLRMLSSSSS
B13: il2ra_site1_2b5i_sap_18_mot_HHH_b1_00835_000000236_0001_42_55_H_._HHH_b1_02049_af2_0001_0000300006_0000001_0_0001_af2pred_dldesign_0_af2pred (protein)
chain: SSSSSNPDARALVRELAEEARREEDPLLRRRLLKLARRVARKAEDPELLAEIERVEAELSSSSSS
B14: il2ra_site2_2erj_normal_mot_HHH_b2_08028_000000126_0001_18_34_H_._HHH_b1_05763_af2_0001_0000300014_0000001_1 (protein)
chain: SSSSDEEVEELLEEAKRLLEEGNPEEAHKVVSKAFELAYEEGNPELFSLVAELALEILRKSSSSS
B15: il2ra_site2_2erj_sap_24_mot_HHH_b2_07139_000000086_0001_40_57_H_._HHH_b2_03334_0001_0000200015_0000001_0_0001 (protein)
chain: SSSSDEEAEISLEAFREARRLFKNGNPEEAREILEEAIRELRELGNEELAETLENLLRFASSSSS
B16: il2ra_site1_1z92_sap_8_mot_add8a691351788dd45ba4deda1838316_0001_1_000000225_0001_37_51_H_._a445c54e3280ddb545be3b99cff61ffd_0001_1_af2_0001_0000300042_0000001_ … (protein)
chain: SSSSSEDKKEARELFQEANRLLRNGNEEEAEELLERALRLAEEAGSRSTARTIEDALKQLESSSS
B17: il2ra_site2_2erj_sap_21_mot_90f6a21de4ed711cb697bb9f61d9c40c_0001_af2_000000135_0001_36_50_H_._0a69b5c9b02373fb877a90f2b4b0d8e1_0001_1_0001_0000100002_0000001_0 … (protein)
chain: SSSSSDDLHEAYELAVRLLRLAANNDPEQFEEVSERLRELAERLQSDTLKEAIENLERFFSSSSS
B18: il2ra_site2_2erj_normal_mot_HHH_b1_05020_af2_000000060_0001_23_40_H_._HHH_b1_02182_af2_0001_0000100003_0000001_0 (protein)
chain: SSSSDEEEEIVRELVEEFNLSELAERFLERNARTLRESGVSEEEIERALEESARLLREAQSSSSS
B19: il2ra_site1_2b5i_sap_12_mot_HHH_b1_01346_af2_000000027_0001_1_20_H_._HHH_b2_00272_af2_0001_0000500041_0000001_0_0001_af2pred_dldesign_0_af2pred (protein)
chain: SSSSSDAWSRVDDLADKAFKVAKTDKEKAKEILEEALRLAEAAGDADLVKQTTDLLKYLESSSSS
B20: il2ra_site1_2b5i_normal_mot_HHH_b2_04910_000000118_0001_1_19_H_._HHH_b1_01775_0001_0000100002_0000001_0_af2pred_0001_af2pred_1 (protein)
chain: SSSSSDKEEAHELFHEANELDRQGDEEEARRVLEEALQLAEEGGNPSLFRLIEAALRLLGSSSSS
B21: il2ra_site2_2erj_sap_30_mot_64bd02d26d05ce9f1a62b616cea0b888_0001_af2_000000029_0001_36_49_H_._HHH_b2_07503_af2_0001_0000300057_0000001_0_0001 (protein)
chain: SSSSSDWEVYVRVWELLHEAAKIEDEEEREQVLEEARRLAEERNSPLLEMFVERLAEELSSSSSS
B22: il2ra_site1_3nfp_sap_21_mot_HHH_b2_04910_af2_000000236_0001_1_18_H_._4946fae19574d7b03d9e348227509a78_0001_0001_0000300023_0000001_0_0001_af2pred_0001_af2pred (protein)
chain: SSSDEREVHKLLKEALEAALKGNPEEARELLEEAERLAKELNNPRAEHTVEKALKSFERARSSSS
B23: il2ra_site2_3nfp_normal_mot_HHH_b2_06150_000000217_0001_39_53_H_._HHH_b2_02070_af2_0001_0000300033_0000001_0 (protein)
chain: SSSSSEEEVEELLRQAEKLLEKGDPEEARRVVARAALLAYELRNAELFYKIAELLLKIVGSSSSS
B24: il2ra_site1_1z92_sap_12_mot_c9a8daa1dfea21d1414aecde54be4f54_0001_1_af2_000000024_0001_32_46_H_._baf84f35d54589ae25ccad3ce5c0571a_0001_af2_0001_0000100002_00000 … (protein)
chain: SSSSTQKESLVRIAVRILVRMAQLSEEQEEELERLAEELIERGYDPLEILKILDEEALRLSSSSS

These binders were tested against il2ra, P01589 (assay: yeast display titration).

Binder | apparent Kd
B1 | inactive: no binding seen
B2 | inactive: no binding seen
B3 | inactive: no binding seen
B4 | inactive: no binding seen
B5 | inactive: no binding seen
B6 | inactive: no binding seen
B7 | inactive: no binding seen
B8 | inactive: no binding seen
B9 | inactive: no binding seen
B10 | inactive: no binding seen
B11 | inactive: no binding seen
B12 | inactive: no binding seen
B13 | inactive: no binding seen
B14 | inactive: no binding seen
B15 | inactive: no binding seen
B16 | inactive: no binding seen
B17 | inactive: no binding seen
B18 | inactive: no binding seen
B19 | inactive: no binding seen
B20 | inactive: no binding seen
B21 | inactive: no binding seen
B22 | inactive: no binding seen
B23 | inactive: no binding seen
B24 | inactive: no binding seen

An excerpt of these results, field by field.
B19
  apparent Kd: inactive: no binding seen
B20
  apparent Kd: inactive: no binding seen
